# Laboratory results taken from the supplement of paper PMC8728848.
# This is one part of the list.
# B1: GS13599A-bth-520-23-520 (Bacteroides thetaiotaomicron) (protein)
# chain: SEDTMDRINKDHDHTTSVASRFILADVITSTAFSNASGDINTYASSYIEYEVGVDNQLYYAEVRENEPSSSSTFNNSWNGIYSSLKNARIIIDQCGEGGRDHGNDVTRGMAEVMAAYNCALIADFFGDAPCSQAALVDEKGSPVYMTPKMDTQQEIYTQIISYLDDAIANLQKEDLADVTEQDFLYAGDADKWLKFAYGLKARYTMRLINRSSNKSADYEKVLDYVSKSFTSADDQAAFDIYDSNNINPFYGFYNSRAGFGASTSLGTKLLAYNDPRANRAFFTPIVDKKRSQVAANDPSLVPAPNGSPDQSTSKYGISAFVYAKTAPTLLMSYHELMFLKAEALCRLNRDAEDALKEAVVAGLLNAENSISIAIKELGSGLNTNSSEVITETSAGKYFDDVVKAKYAANPLQETMIQKYLAMWGASGEATETYNDFRRMKGLNENFITLTNPNNSSKFPLRYPYGNSDTAANPEVKAAYGNGDYVYSEPVWWAGGSR
# Columns and labels:
# Test in all cases: glycan array binding signal (z-score within array); higher = stronger binding
# Conditions in all cases: glycan notation: IUPAC condensed, linker removed
# [1] = molecular target: Neu5Ac(a2-6)Gal(b1-3)GlcNAc(b1-3)[Gal(b1-4)GlcNAc(b1-6)]Gal(b1-4)Glc
# How it was run: (§1)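 Negative Z-scores can be read as non-binding. The Z-score is calculated within each array and then averaged across arrays of one protein sequence at different concentrations or buffers and across linkers. Arrays, 3228 in all, were curated from the Consortium for Functional Glycomics database and kept only where the protein sequence was available.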
# Neu5Ac(a2-6)Gal(b1-4)Glc = molecular target: Neu5Ac(a2-6)Gal(b1-4)Glc
# How it was run: as §1
# [2] = molecular target: Neu5Ac(a2-6)Gal(b1-4)GlcNAc
# How it was run: as §1
# [3] = molecular target: Neu5Ac(a2-6)Gal(b1-4)GlcNAc(b1-2)Man
# How it was run: as §1
# [4] = molecular target: Neu5Ac(a2-6)Gal(b1-4)GlcNAc(b1-2)Man(a1-3)Man(b1-4)GlcNAc(b1-4)GlcNAc
# How it was run: as §1
# [5] = molecular target: Neu5Ac(a2-6)Gal(b1-4)GlcNAc(b1-2)Man(a1-3)[Gal(b1-4)GlcNAc(b1-2)Man(a1-6)]Man(b1-4)GlcNAc(b1-4)GlcNAc
# How it was run: as §1
# [6] = molecular target: Neu5Ac(a2-6)Gal(b1-4)GlcNAc(b1-2)Man(a1-3)[GlcNAc(b1-2)Man(a1-6)]Man(b1-4)GlcNAc(b1-4)GlcNAc
# How it was run: as §1
# [7] = molecular target: Neu5Ac(a2-6)Gal(b1-4)GlcNAc(b1-2)Man(a1-3)[GlcNAc(b1-4)][Neu5Ac(a2-6)Gal(b1-4)GlcNAc(b1-2)Man(a1-6)]Man(b1-4)GlcNAc(b1-4)GlcNAc
# How it was run: as §1
# [8] = molecular target: Neu5Ac(a2-6)Gal(b1-4)GlcNAc(b1-2)Man(a1-3)[Man(a1-6)]Man(b1-4)GlcNAc(b1-4)GlcNAc
# How it was run: as §1
# [9] = molecular target: Neu5Ac(a2-6)Gal(b1-4)GlcNAc(b1-2)Man(a1-3)[Neu5Ac(a2-3)Gal(b1-4)GlcNAc(b1-2)Man(a1-6)]Man(b1-4)GlcNAc(b1-4)GlcNAc
# How it was run: as §1
# [10] = molecular target: Neu5Ac(a2-6)Gal(b1-4)GlcNAc(b1-2)Man(a1-3)[Neu5Ac(a2-6)Gal(b1-4)GlcNAc(b1-2)Man(a1-6)]Man(b1-4)GlcNAc(b1-4)GlcNAc
# How it was run: as §1
# [11] = molecular target: Neu5Ac(a2-6)Gal(b1-4)GlcNAc(b1-2)Man(a1-3)[Neu5Ac(a2-6)Gal(b1-4)GlcNAc(b1-2)Man(a1-6)]Man(b1-4)GlcNAc(b1-4)[Fuc(a1-6)]GlcNAc
# How it was run: as §1
# [12] = molecular target: Neu5Ac(a2-6)Gal(b1-4)GlcNAc(b1-2)Man(a1-6)Man(b1-4)GlcNAc(b1-4)GlcNAc
# How it was run: as §1
# [13] = molecular target: Neu5Ac(a2-6)Gal(b1-4)GlcNAc(b1-2)Man(a1-6)[Gal(b1-4)GlcNAc(b1-2)Man(a1-3)]Man(b1-4)GlcNAc(b1-4)GlcNAc
# How it was run: as §1
# [14] = molecular target: Neu5Ac(a2-6)Gal(b1-4)GlcNAc(b1-2)Man(a1-6)[GlcNAc(b1-2)Man(a1-3)]Man(b1-4)GlcNAc(b1-4)GlcNAc
# How it was run: as §1
# [15] = molecular target: Neu5Ac(a2-6)Gal(b1-4)GlcNAc(b1-2)Man(a1-6)[Man(a1-3)]Man(b1-4)GlcNAc(b1-4)GlcNAc
# How it was run: as §1
# [16] = molecular target: Neu5Ac(a2-6)Gal(b1-4)GlcNAc(b1-2)[Neu5Ac(a2-6)Gal(b1-4)GlcNAc(b1-4)]Man(a1-3)[GlcNAc(b1-4)][Neu5Ac(a2-6)Gal(b1-4)GlcNAc(b1-2)[Neu5Ac(a2-6)Gal(b1-4)GlcNAc(b1-6)]Man(a1-6)]Man(b1-4)GlcNAc(b1-4)GlcNAc
# How it was run: as §1
# [17] = molecular target: Neu5Ac(a2-6)Gal(b1-4)GlcNAc(b1-2)[Neu5Ac(a2-6)Gal(b1-4)GlcNAc(b1-4)]Man(a1-3)[GlcNAc(b1-4)][Neu5Ac(a2-6)Gal(b1-4)GlcNAc(b1-4)Man(a1-6)]Man(b1-4)GlcNAc(b1-4)GlcNAc
# How it was run: as §1
# [18] = molecular target: Neu5Ac(a2-6)Gal(b1-4)GlcNAc(b1-2)[Neu5Ac(a2-6)Gal(b1-4)GlcNAc(b1-6)]Man(a1-6)[Neu5Ac(a2-6)Gal(b1-4)GlcNAc(b1-2)Man(a1-3)][GlcNAc(b1-4)]Man(b1-4)GlcNAc(b1-4)GlcNAc
# How it was run: as §1
# [19] = molecular target: Neu5Ac(a2-6)Gal(b1-4)GlcNAc(b1-3)Gal(b1-3)GlcNAc
# How it was run: as §1
# [20] = molecular target: Neu5Ac(a2-6)Gal(b1-4)GlcNAc(b1-3)Gal(b1-4)GlcNAc
# How it was run: as §1
# [21] = molecular target: Neu5Ac(a2-6)Gal(b1-4)GlcNAc(b1-3)Gal(b1-4)GlcNAc(b1-2)Man(a1-3)[Neu5Ac(a2-6)Gal(b1-4)GlcNAc(b1-3)Gal(b1-4)GlcNAc(b1-2)Man(a1-6)]GalNAc
# How it was run: as §1
# [22] = molecular target: Neu5Ac(a2-6)Gal(b1-4)GlcNAc(b1-3)Gal(b1-4)GlcNAc(b1-3)Gal(b1-4)GlcNAc
# How it was run: as §1
# [23] = molecular target: Neu5Ac(a2-6)Gal(b1-4)GlcNAc(b1-3)Gal(b1-4)GlcNAc(b1-3)Gal(b1-4)GlcNAc(b1-2)Man(a1-3)[Neu5Ac(a2-6)Gal(b1-4)GlcNAc(b1-3)Gal(b1-4)GlcNAc(b1-3)Gal(b1-4)GlcNAc(b1-2)Man(a1-6)]GalNAc
# How it was run: as §1
# [24] = molecular target: Neu5Ac(a2-6)Gal(b1-4)GlcNAc(b1-3)Gal(b1-4)GlcNAc(b1-3)GalNAc
# How it was run: as §1
# [25] = molecular target: Neu5Ac(a2-6)Gal(b1-4)GlcNAc(b1-3)Gal(b1-4)GlcNAc(b1-3)[Neu5Ac(a2-6)Gal(b1-4)GlcNAc(b1-3)Gal(b1-4)GlcNAc(b1-6)]GalNAc
# How it was run: as §1
# [26] = molecular target: Neu5Ac(a2-6)Gal(b1-4)GlcNAc(b1-3)Gal(b1-4)GlcNAc(b1-6)[Gal(b1-3)]GalNAc
# How it was run: as §1
# [27] = molecular target: Neu5Ac(a2-6)Gal(b1-4)GlcNAc(b1-3)Gal(b1-4)[Fuc(a1-3)]GlcNAc(b1-3)Gal(b1-4)[Fuc(a1-3)]GlcNAc
# How it was run: as §1
# [28] = molecular target: Neu5Ac(a2-6)Gal(b1-4)GlcNAc(b1-3)GalNAc
# How it was run: as §1
# [29] = molecular target: Neu5Ac(a2-6)Gal(b1-4)GlcNAc(b1-3)[Neu5Ac(a2-6)Gal(b1-4)GlcNAc(b1-6)]GalNAc
# How it was run: as §1
# [30] = molecular target: Neu5Ac(a2-6)Gal(b1-4)GlcNAc(b1-6)GalNAc
# How it was run: as §1
# [31] = molecular target: Neu5Ac(a2-6)Gal(b1-4)GlcNAc(b1-6)[Gal(b1-3)GlcNAc(b1-3)]Gal(b1-4)Glc
# How it was run: as §1
# [32] = molecular target: Neu5Ac(a2-6)Gal(b1-4)GlcNAc(b1-6)[Gal(b1-3)]GalNAc
# How it was run: as §1
# [33] = molecular target: Neu5Ac(a2-6)Gal(b1-4)GlcNAc6S
# How it was run: as §1
# Neu5Ac(a2-6)GalNAc = molecular target: Neu5Ac(a2-6)GalNAc
# How it was run: as §1
# [34] = molecular target: Neu5Ac(a2-6)GalNAc(b1-4)GlcNAc
# How it was run: as §1
# [35] = molecular target: Neu5Ac(a2-6)GalNAc(b1-4)GlcNAc6S
# How it was run: as §1
# [36] = molecular target: Neu5Ac(a2-6)GlcNAc(b1-4)GlcNAc
# How it was run: as §1
binder,measurement,setting,value
B1,glycan array binding signal (z-score),[1],-1.01
same,glycan array binding signal (z-score),Neu5Ac(a2-6)Gal(b1-4)Glc,-0.123
same,glycan array binding signal (z-score),[2],-0.724
same,glycan array binding signal (z-score),[3],-0.572
same,glycan array binding signal (z-score),[4],-0.803
same,glycan array binding signal (z-score),[5],0.028
same,glycan array binding signal (z-score),[6],0.659
same,glycan array binding signal (z-score),[7],-0.169
same,glycan array binding signal (z-score),[8],0.864
same,glycan array binding signal (z-score),[9],-0.584
same,glycan array binding signal (z-score),[10],-0.142
same,glycan array binding signal (z-score),[11],1.66
same,glycan array binding signal (z-score),[12],0.942
same,glycan array binding signal (z-score),[13],0.484
same,glycan array binding signal (z-score),[14],-0.32
same,glycan array binding signal (z-score),[15],-0.905
same,glycan array binding signal (z-score),[16],-1.03
same,glycan array binding signal (z-score),[17],-0.78
same,glycan array binding signal (z-score),[18],-0.669
same,glycan array binding signal (z-score),[19],-0.514
same,glycan array binding signal (z-score),[20],-1.27
same,glycan array binding signal (z-score),[21],0.513
same,glycan array binding signal (z-score),[22],-0.605
same,glycan array binding signal (z-score),[23],2.37
same,glycan array binding signal (z-score),[24],-0.961
same,glycan array binding signal (z-score),[25],-0.682
same,glycan array binding signal (z-score),[26],-0.505
same,glycan array binding signal (z-score),[27],0.213
same,glycan array binding signal (z-score),[28],-0.622
same,glycan array binding signal (z-score),[29],0.2
same,glycan array binding signal (z-score),[30],0.685
same,glycan array binding signal (z-score),[31],-0.52
same,glycan array binding signal (z-score),[32],0.937
same,glycan array binding signal (z-score),[33],-0.962
same,glycan array binding signal (z-score),Neu5Ac(a2-6)GalNAc,-1.6
same,glycan array binding signal (z-score),[34],-0.468
same,glycan array binding signal (z-score),[35],-1.6
same,glycan array binding signal (z-score),[36],0.611

# Copied from the entries so far (nine entries):
binder,measurement,setting,value
B1,glycan array binding signal (z-score),[29],0.2
same,glycan array binding signal (z-score),[30],0.685
same,glycan array binding signal (z-score),[31],-0.52
same,glycan array binding signal (z-score),[32],0.937
same,glycan array binding signal (z-score),[33],-0.962
same,glycan array binding signal (z-score),Neu5Ac(a2-6)GalNAc,-1.6
same,glycan array binding signal (z-score),[34],-0.468
same,glycan array binding signal (z-score),[35],-1.6
same,glycan array binding signal (z-score),[36],0.611
